Measurements reported in PubChem BioAssay AID1487 (National Center for Advancing Translational Sciences (NCATS), 2009).
This is one part of the list. The main result of the screen is listed elsewhere. These columns were measured beside it and carry no call. Compounds called inactive in the main read-out are mostly missing here. Potencies come from curve fits of mixed quality, noted in brackets.

Assay: qHTS Assay for Modulators of Lamin A Splicing
Conditions: HeLa LMNA splicing GFP/RFP minigene ratio, 48 h
Summary of the method: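 S3 HeLa stable clones carrying a lamin A-EGFP splicing minigene plus DsRed2 were seeded at 600 cells/well in Opti-MEM with 2% FBS, pin-dosed and incubated 48 h at 37°C. Acumen cytometry (488 nm) gave the GFP/RFP total-intensity ratio.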

[1] = measured here: GFP splicing reporter channel
[2] = measured here: RFP viability control channel

CC(OCC(O)CN(C)Cc1nc2ccccc2c(=O)[nH]1)c1ccc(Cl)cc1 (configuration not stated)
AC50 [1]: 3.55 µM [falling, partial curve, poor fit]

CNC(=S)N/N=C(\C)c1ccc(C)c(C)c1
AC50 [1]: 35.5 µM [falling, single point]

CC[n+]1c(C)sc2cc(C)ccc21
AC50 [2]: 31.6 µM [rising, single point]

Cc1nc([N+](=O)[O-])c(Sc2nc3ccccc3n2C)n1Cc1ccccc1
AC50 [2]: 10 µM [rising, partial curve]

CN1/C(=C\C(=O)COC(=O)CNC(=O)c2ccc3ccccc3c2)C(C)(C)c2ccccc21
AC50 [1]: 10 µM [rising, partial curve, poor fit]
AC50 [2]: 8.91 µM [rising, partial curve, poor fit]

CC(=O)/C(N)=N/Nc1cccc(Cl)c1
AC50 [2]: 5.62 µM [rising, single point]

COc1cc(NC(=O)Cn2nnc(-c3ccncc3)n2)cc(OC)c1
AC50 [2]: 7.08 µM [rising, partial curve, poor fit]

CCc1ccc(OCC(=O)Nc2ccc(N3CCN(S(C)(=O)=O)CC3)cc2)cc1
AC50 [1]: 0.501 µM [rising, full curve, poor fit]

Cc1ccc2nc(NC(=O)CCn3cccc3)sc2c1
AC50 [1]: 0.0794 µM [rising, full curve, poor fit]
AC50 [2]: 0.00447 µM [rising, full curve, poor fit]

Cc1cc(C)cc(N2C(=O)CS(=O)(=O)C23C(=O)N(C)c2ccccc23)c1 (configuration not stated)
AC50 [1]: 0.0355 µM [falling, full curve, poor fit]
AC50 [2]: 0.0224 µM [falling, full curve]

O=C(Nc1ccccc1N1CCCCC1)c1ccc2nccnc2c1
AC50 [2]: 35.5 µM [rising, single point]

Cc1nc(-c2ccc(S(=O)(=O)N(C)Cc3ccccc3)cc2)co1
AC50 [1]: 35.5 µM [falling, single point]

COc1ccc(-c2c/c(=N\c3nc(-c4ccccc4)c(C)s3)c3ccccc3o2)cc1O
AC50 [2]: 4.47 µM [rising, full curve]

O=C(CSCc1ccc(Cl)cc1)N1CCN(Cc2ccc3c(c2)OCO3)CC1
AC50 [1]: 14.1 µM [rising, single point]
AC50 [2]: 15.8 µM [rising, partial curve]

CCn1c(C)nc2cc(C(=O)NNC(=S)Nc3ccc(OC)cc3)ccc21
AC50 [1]: 6.31 µM [rising, partial curve]

COC(=O)c1sccc1NC(=O)CSc1ccccc1N
AC50 [2]: 20 µM [rising, single point]

COc1ccc(CNc2oc(-c3cccc4ccccc34)nc2C#N)cc1
AC50 [1]: 35.5 µM [rising, single point]
AC50 [2]: 35.5 µM [rising, single point]

O=C(NC1CCCCC1)c1cccc(COCC(F)(F)F)c1
AC50 [1]: 31.6 µM [rising, single point]
AC50 [2]: 35.5 µM [rising, single point]

CCCNC(=O)COC(=O)/C=C/c1ccc2c(c1)OCO2
AC50 [1]: 20 µM [rising, single point]

Cc1ccc(-c2[nH]nc(N)c2N=Nc2cccc(Cl)c2C)cc1
AC50 [1]: 25.1 µM [falling, single point]
AC50 [2]: 35.5 µM [falling, single point]

CCCOc1cccc(C(=O)NC(=S)Nc2ccccc2)c1
AC50 [2]: 35.5 µM [rising, single point]

CC(C)(C)C1CCc2c(sc(NC(=O)CSc3ncn[nH]3)c2C#N)C1 (configuration not stated)
AC50 [2]: 12.6 µM [rising, single point]

CC(C)c1ccc(NC(=O)C2Cc3ccccc3N2C(=O)c2ccccc2)cc1 (configuration not stated)
AC50 [1]: 3.98 µM [rising, partial curve, poor fit]
AC50 [2]: 5.01 µM [rising, single point]

Cc1cc(C)cc(-n2c(C)cc(/C=C3\C(=N)N4N=C(CC(C)C)SC4=NC3=O)c2C)c1
AC50 [1]: 25.1 µM [rising, single point]
AC50 [2]: 35.5 µM [rising, single point]

Cc1cc(C(=O)Nc2cccc3cccnc23)ccc1[N+](=O)[O-]
AC50 [2]: 0.126 µM [falling, full curve, poor fit]

COCCn1c(-c2ccc(OC)cc2)cnc1SCC(=O)Nc1cc(C)on1
AC50 [2]: 12.6 µM [rising, single point]

CCN(CC)c1ccc(C=Nc2ccc(C)cc2)c(O)c1
AC50 [1]: 14.1 µM [rising, single point]
AC50 [2]: 12.6 µM [rising, single point]

CC(=O)Nc1cccc(C(=O)O)n1
AC50 [1]: 1.26 µM [falling, single point]
AC50 [2]: 0.891 µM [falling, partial curve]

c1ccc(C[n+]2cccc(-c3ccccc3)c2)cc1
AC50 [1]: 12.6 µM [rising, partial curve]
AC50 [2]: 14.1 µM [rising, partial curve]

C#C[C@]1(O)CC[C@@H]2[C@H]3CCc4cc(OC)ccc4[C@@H]3CC[C@@]21C
AC50 [1]: 1.41 µM [falling, full curve, poor fit]
AC50 [2]: 1.41 µM [falling, partial curve]

Cc1ncsc1CCOC(=O)c1ccc(N2CCOCC2)c([N+](=O)[O-])c1
AC50 [1]: 0.00355 µM [rising, full curve, poor fit]

Cc1cccc(CN2CCN(C(=O)CCl)CC2)c1
AC50 [1]: 35.5 µM [falling, single point]

COc1ccc(Br)cc1CNC(=O)c1cnc2sc(N3CCCCCC3)nn2c1=O
AC50 [1]: 17.8 µM [falling, partial curve, poor fit]
AC50 [2]: 0.282 µM [falling, full curve, poor fit]

COc1ccc(S(=O)(=O)Nc2cc3c(C(C)=O)c(C)oc3c3ccccc23)cc1
AC50 [2]: 10 µM [falling, partial curve, poor fit]

CCSc1nc2c([nH]c3ccccc32)c(=O)n1-c1cccc(OC)c1
AC50 [1]: 35.5 µM [falling, single point]
AC50 [2]: 35.5 µM [falling, single point]

COc1cccc(NC(=O)Cn2c(=O)ccc3cc(S(=O)(=O)N4CCC(C)CC4)ccc32)c1
AC50 [1]: 0.316 µM [rising, full curve]

NC(=O)C1CCN(c2ccc(C(F)(F)F)cn2)CC1
AC50 [1]: 0.0891 µM [falling, full curve, poor fit]
AC50 [2]: 0.1 µM [falling, full curve, poor fit]

COc1ccc(-c2nc3ccccc3n2Cc2ccc(C)cc2)cc1
AC50 [2]: 11.2 µM [rising, single point]

COc1ccc(NC(=O)c2cc3nc(-c4ccccc4)cc(C)n3n2)cc1OC
AC50 [1]: 12.6 µM [falling, partial curve, poor fit]
AC50 [2]: 12.6 µM [falling, partial curve, poor fit]

C=CCOc1c(Br)cc(CNc2ccc3[nH]c(=O)[nH]c3c2)cc1OCC
AC50 [1]: 0.126 µM [falling, full curve, poor fit]
AC50 [2]: 0.1 µM [falling, full curve, poor fit]

Cn1nccc1C(=O)Nc1ccn(C23CC4CC(CC(C4)C2)C3)n1
AC50 [2]: 7.08 µM [rising, partial curve]

O=C(Nc1ccc(Cl)c(Cl)c1)c1ccc(Cn2cc(Cl)cn2)cc1
AC50 [1]: 35.5 µM [falling, partial curve]
AC50 [2]: 35.5 µM [falling, partial curve]

CCCCc1nn2c(=O)cc(COC(=O)c3ccco3)nc2s1
AC50 [1]: 0.00501 µM [falling, full curve, poor fit]

COC(=O)c1c(-c2cc(C)ccc2C)csc1NC(=O)C1CC=CCC1C(=O)O (configuration not stated)
AC50 [1]: 22.4 µM [falling, partial curve, poor fit]

Cc1ccc(OCC(=O)N/N=C/c2ccc3c(c2)OCO3)cc1C
AC50 [1]: 31.6 µM [rising, single point]

CCCCC(=O)Nc1nnc(SCc2cc(=O)n3cc(C)ccc3n2)s1
AC50 [1]: 0.562 µM [rising, full curve, poor fit]

O=C(CNC(=O)c1ccco1)OCC(=O)c1ccc2ccccc2c1
AC50 [2]: 0.0112 µM [falling, full curve, poor fit]

NC(=O)NC(=O)COC(=O)c1ccc(Cl)c(S(=O)(=O)N(Cc2ccccc2)c2ccc(Cl)cc2)c1
AC50 [1]: 35.5 µM [falling, single point]
AC50 [2]: 35.5 µM [falling, single point]

Cc1ccc(CNC(=O)CSc2nc(=O)n(Cc3ccco3)c3c2CCC3)cc1
AC50 [1]: 3.55 µM [rising, partial curve, poor fit]
AC50 [2]: 2.82 µM [rising, partial curve]

CC(=O)Oc1ccc(/C=N/NS(=O)(=O)c2ccccc2)cc1
AC50 [1]: 1.58 µM [falling, full curve, poor fit]

Cc1ccc(NC(=O)CSc2nc3nc(C)cc(C)c3c(=O)[nH]2)cc1
AC50 [2]: 25.1 µM [rising, single point]

Cc1ccc(-n2[nH]c(C)c(CCC#N)c2=O)cc1
AC50 [1]: 0.00891 µM [falling, full curve, poor fit]

Cc1cccc2c(=O)cc(C)n(Cc3ccccc3)c12
AC50 [1]: 15.8 µM [rising, partial curve, poor fit]
AC50 [2]: 7.94 µM [rising, partial curve, poor fit]

CC(C)N1CCN(c2ccc(OC[C@@H]3CO[C@@](Cn4cncn4)(c4ccc(Cl)cc4Cl)O3)cc2)CC1
AC50 [1]: 0.316 µM [falling, full curve, poor fit]
AC50 [2]: 0.00794 µM [falling, full curve, poor fit]
